From paper PMC4074815, “An Impermeant Ganetespib Analog Inhibits Extracellular Hsp90-Mediated Cancer Cell Migration that Involves Lysyl Oxidase 2-like Protein” (Cancers, 2014)
Results are given in words; binding and its absence hold for the method and conditions named. In cells and extracts the contact can be indirect. These calls come from enrichment with a bait or labelling near it, and not all partners need be listed.

By UniProt entry, the sequences of proteins in these tests, tags left out. Residues count along the entry.
UniProt P28799, residues 18-593: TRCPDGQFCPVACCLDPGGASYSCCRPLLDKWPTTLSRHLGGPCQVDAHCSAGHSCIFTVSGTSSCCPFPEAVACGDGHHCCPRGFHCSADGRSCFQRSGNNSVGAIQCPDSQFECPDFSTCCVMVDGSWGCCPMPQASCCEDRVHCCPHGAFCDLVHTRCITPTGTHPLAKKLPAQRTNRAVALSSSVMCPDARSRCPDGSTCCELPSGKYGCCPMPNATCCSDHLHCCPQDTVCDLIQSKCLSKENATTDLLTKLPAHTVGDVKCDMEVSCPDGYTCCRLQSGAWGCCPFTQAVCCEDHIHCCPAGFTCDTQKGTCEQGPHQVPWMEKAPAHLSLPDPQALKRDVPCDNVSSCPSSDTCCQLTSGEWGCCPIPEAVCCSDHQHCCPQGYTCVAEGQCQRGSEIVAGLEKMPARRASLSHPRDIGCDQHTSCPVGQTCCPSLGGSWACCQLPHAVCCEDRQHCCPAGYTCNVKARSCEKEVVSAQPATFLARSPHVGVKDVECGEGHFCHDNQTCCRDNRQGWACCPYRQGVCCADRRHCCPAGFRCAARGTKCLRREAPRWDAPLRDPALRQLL
UniProt Q9Y4K0, residues 26-774: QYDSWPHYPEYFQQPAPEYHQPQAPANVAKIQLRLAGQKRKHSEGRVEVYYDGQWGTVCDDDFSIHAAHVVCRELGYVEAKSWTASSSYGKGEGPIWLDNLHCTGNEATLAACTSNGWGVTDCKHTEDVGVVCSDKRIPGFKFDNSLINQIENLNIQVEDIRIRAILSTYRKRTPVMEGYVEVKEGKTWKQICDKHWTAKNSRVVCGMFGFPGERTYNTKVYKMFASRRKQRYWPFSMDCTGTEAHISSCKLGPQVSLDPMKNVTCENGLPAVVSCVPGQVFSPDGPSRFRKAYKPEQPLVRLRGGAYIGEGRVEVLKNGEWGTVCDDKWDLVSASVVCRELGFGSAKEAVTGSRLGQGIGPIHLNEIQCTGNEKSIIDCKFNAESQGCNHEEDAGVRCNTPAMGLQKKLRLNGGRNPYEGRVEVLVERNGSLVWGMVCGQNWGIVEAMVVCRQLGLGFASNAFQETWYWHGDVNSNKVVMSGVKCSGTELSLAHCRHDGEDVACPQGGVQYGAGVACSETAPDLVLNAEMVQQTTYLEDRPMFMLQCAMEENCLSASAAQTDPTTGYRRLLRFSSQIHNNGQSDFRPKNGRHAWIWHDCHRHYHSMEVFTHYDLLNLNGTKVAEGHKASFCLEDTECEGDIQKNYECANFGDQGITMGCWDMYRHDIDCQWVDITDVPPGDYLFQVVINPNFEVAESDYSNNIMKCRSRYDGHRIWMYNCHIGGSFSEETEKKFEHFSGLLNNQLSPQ

B1: Lysyl Oxidase-like 4 precursor (protein, UniProt Q96JB6 25-756)
chain: QSLGTTKLRLVGPESKPEEGRLEVLHQGQWGTVCDDNFAIQEATVACRQLGFEAALTWAHSAKYGQGEGPIWLDNVRCVGTESSLDQCGSNGWGVSDCSHSEDVGVICHPRRHRGYLSETVSNALGPQGRRLEEVRLKPILASAKQHSPVTEGAVEVKYEGHWRQVCDQGWTMNNSRVVCGMLGFPSEVPVDSHYYRKVWDLKMRDPKSRLKSLTNKNSFWIHQVTCLGTEPHMANCQVQVAPARGKLRPACPGGMHAVVSCVAGPHFRPPKTKPQRKGSWAEEPRVRLRSGAQVGEGRVEVLMNRQWGTVCDHRWNLISASVVCRQLGFGSAREALFGARLGQGLGPIHLSEVRCRGYERTLSDCPALEGSQNGCQHENDAAVRCNVPNMGFQNQVRLAGGRIPEEGLLEVQVEVNGVPRWGSVCSENWGLTEAMVACRQLGLGFAIHAYKETWFWSGTPRAQEVVMSGVRCSGTELALQQCQRHGPVHCSHGGGRFLAGVSCMDSAPDLVMNAQLVQETAYLEDRPLSQLYCAHEENCLSKSADHMDWPYGYRRLLRFSTQIYNLGRTDFRPKTGRDSWVWHQCHRHYHSIEVFTHYDLLTLNGSKVAEGHKASFCLEDTNCPTGLQRRYACANFGEQGVTVGCWDTYRHDIDCQWVDITDVGPGNYIFQVIVNPHYEVAESDFSNNMLQCRCKYDGHRVWLHNCHTGNSYPANAELSLEQEQRLRNNLI
B2: MAM domain containing 2 (protein, UniProt Q7Z304 19-686)
chain: LDLPAGSCAFEESTCGFDSVLASLPWILNEEGHYIYVDTSFGKQGEKAVLLSPDLQAEEWSCLRLVYQITTSSESLSDPSQLNLYMRFEDESFDRLLWSAKEPSDSWLIASLDLQNSSKKFKILIEGVLGQGNTASIALFEIKMTTGYCIECDFEENHLCGFVNRWNPNVNWFVGGGSIRNVHSILPQDHTFKSELGHYMYVDSVYVKHFQEVAQLISPLTTAPMAGCLSFYYQIQQGNDNVFSLYTRDVAGLYEEIWKADRPGNAAWNLAEVEFSAPYPMEVIFEVAFNGPKGGYVALDDISFSPVHCQNQTELLFSAVEASCNFEQDLCNFYQDKEGPGWTRVKVKPNMYRAGDHTTGLGYYLLANTKFTSQPGYIGRLYGPSLPGNLQYCLRFHYAIYGFLKMSDTLAVYIFEENHVVQEKIWSVLESPRGVWMQAEITFKKPMPTKVVFMSLCKSFWDCGLVALDDITIQLGSCSSSEKLPPPPGECTFEQDECTFTQEKRNRSSWHRRRGETPTSYTGPKGDHTTGVGYYMYIEASHMVYGQKARLLSRPLRGVSGKHCLTFFYHMYGGGTGLLSVYLKKEEDSEESLLWRRRGEQSISWLRALIEYSCERQHQIIFEAIRGVSIRSDIAIDDVKFQAGPCGEMEDTTQQSSGYSEDLNEIEY
B3: Galactosylceramidase isoform a precurso (protein, UniProt P54803 43-685)
chain: YVLDDSDGLGREFDGIGAVSGGGATSRLLVNYPEPYRSQILDYLFKPNFGASLHILKVEIGGDGQTTDGTEPSHMHYALDENYFRGYEWWLMKEAKKRNPNITLIGLPWSFPGWLGKGFDWPYVNLQLTAYYVVTWIVGAKRYHDLDIDYIGIWNERSYNANYIKILRKMLNYQGLQRVKIIASDNLWESISASMLLDAELFKVVDVIGAHYPGTHSAKDAKLTGKKLWSSEDFSTLNSDMGAGCWGRILNQNYINGYMTSTIAWNLVASYYEQLPYGRCGLMTAQEPWSGHYVVESPVWVSAHTTQFTQPGWYYLKTVGHLEKGGSYVALTDGLGNLTIIIETMSHKHSKCIRPFLPYFNVSQQFATFVLKGSFSEIPELQVWYTKLGKTSERFLFKQLDSLWLLDSDGSFTLSLHEDELFTLTTLTTGRKGSYPLPPKSQPFPSTYKDDFNVDYPFFSEAPNFADQTGVFEYFTNIEDPGEHHFTLRQVLNQRPITWAADASNTISIIGDYNWTNLTIKCDVYIETPDTGGVFIAGRVNKGGILIRSARGIFFWIFANGSYRVTGDLAGWIIYALGRVEVTAKKWYTLTLTIKGHFTSGMLNDKSLWTDIPVNFPKNGWAAIGTHSFEFAQFDNFLVEATR

Target: Heat Shock Protein 90 kDa alpha (cytosolic), class A member 1 isoform 2 (human (endogenous in MDA-MB231)) (UniProt P07900)
Assay: affinity purification with mass spectrometry; immunoprecipitation with hsp90α antibody (1 μg) from 1 mg protein of concentrated serum-free conditioned media of MDA-MB231 cells, pre-cleared with protein A beads; washed with RIPA B buffer (50 mM Tris, 150 mM NaCl, 0.5% NP40, 0.25% DOC); SDS-PAGE, Coomassie-stained bands excised for mass spectrometry

Row | Molecule | binding
1 | Plasminogen Activator, tissue type isoform 1 preprotein (from UniProt P00750 36-562) | binds
2 | Albumin precursor (from UniProt P02768) | binds
3 | Granulin precursor (from UniProt P28799 18-593) | binds
4 | Lysyl Oxidase-like 2 precursor (from UniProt Q9Y4K0 26-774) | binds
5 | B1 | binds
6 | B2 | binds
7 | B3 | binds
